Measurements reported in patent US20170305975A1.
Results are given in words; binding and its absence hold for the method and conditions named. Binding can be weak; no strength is given. Tags and fused reporters may be left off the sequences shown.

Assays:
tau fibers (ftau) [1] = assay: SPR
tau fibers (ftau) [2] = assay: SPR, Construct 4 on ftau

- binding (tau fibers (ftau) [1]): binds
- binding (tau fibers (ftau) [2]): binds
B1: rs-g3p(N1N2)-hIgG4-Fc fusion protein (Construct 4) (Fc fusion)
chain: MAETVESCLAKPHTENSFTNVWKDDKTLDRYANYEGCLWNATGVVVCTGDETQCYGTWVPIGLAIPENEGGGSEGGGSEGGGSEGGGTKPPEYGDTPIPGYTYINPLDGTYPPGTEQNPANPNPSLEESQPLNTFMFQNNRFRNRQGALTVYTGTVTQGTDPVKTYYQYTPVSSKAMYDAYWNGKFRDCAFHSGFNEDPFVCEYQGQSSDLPQPPVNAGGGSGGGSGGGSEGGGSEGGGSEGGGSEGGGSGGGSGSGAMVRSPPCPSCPAPEFLGGPSVFLFPPKPKDTLMISRTPEVTCVVVDVSQEDPEVQFNWYVDGVEVHNAKTKPREEQFNSTYRVVSVLTVLHQDWLNGKEYKCKVSNKGLPSSIEKTISKAKGQPREPQVYTLPPSQEEMTKNQVSLTCLVKGFYPSDIAVEWESNGQPENNYKTTPPVLDSDGSFFLYSRLTVDKSRWQEGNVFSCSVMHEALHNHYTQKSLSLSPGK
